{"source": "patent US10517937B2", "about": "“Immunotherapy for the treatment of cancer” (University Health Network, priority 2014, dated 2019)", "tested_on": "leukemic stem cell-like AML cell line, KG1a", "type": "cell-based", "settings": "1 ug/ml AraC for 14 hrs before co-culture with DNTs", "note": "For at least one compound, name, drawing or mass did not settle the structure.", "data": [{"smiles": "Nc1ccn([C@@H]2O[C@H](CO)[C@@H](O)[C@@H]2O)c(=O)n1", "note": "[AraC, Arabinofuranosyl Cytidine]", "values": [{"measurement": "effect of AraC on susceptibility of KG1a to DNTs", "value": "significantly more susceptible"}]}]}
